# Most values lie at the floor of the assay. Slopes are relative: functional sequences can read slightly below zero.
# Tested on: Saccharomyces cerevisiae PS128 hsf1 delta, HSF1(1-493) fusion
# Test: growth estimate (transactivation domain function in HSF1 fusion, heat-shock survival) (a.u. (slope of normalised read count over time)); higher = stronger growth at 37°C, i.e. more transactivation activity
# Details: library: random library
row,Substance,growth estimate
1,DLF,< -0.25
2,RAISVILVPRAPSNLPLLRT,< -0.25
3,WTYPVFLSITFQPSGPSQQG,< -0.25
4,NCRYRSVAFIVTAPTHWQNG,< -0.25
5,YYLSRRWLEGGGTPRLTAGL,< -0.25
6,VRYV,< -0.25
7,CVGETRTGSKVATVVGITGF,< -0.25
8,IVLLSACGFIPCGPVPRVEL,< -0.25
9,VRPSPGLI,< -0.25
10,AQSVTERPRGTVLIIAFGKE,< -0.25
11,VVALFKDLF,< -0.25
12,FVNGAVDCDIAQVYIGGVKV,< -0.25
13,FADRVCVSEL,< -0.25
14,LTELCLVRQRFS,< -0.25
15,RYASAGSRSNSYSNRRRLDL,< -0.25
16,LRLG,< -0.253
17,LGPLTLIPRVQRCKYGEGIT,< -0.25
18,GVD,< -0.25
19,IYSSSGTLIRSAGSYISPQN,-0.243
20,RGTFLLFRSGRSIT,< -0.25
21,QPIGTHL,< -0.25
22,GRIGP,< -0.25
23,YWVNPCDKSSRISYMADSGP,< -0.25

row,Substance,growth estimate
1,KGGRPLIPPTVR,< -0.25
2,VVSNGRIPSVPASTAYCQSR,< -0.25
3,HTVCLLAMGLLPISIVFNL,< -0.25
4,RCGPAFYLIYC,< -0.25
5,VKVLSVRGPLDGHSHVFGRP,< -0.25
6,SYCNAFQ,< -0.25
7,YVSVLNAGKRLIPGWLCCNP,< -0.25
8,TSVGTLFRLRTQ,< -0.25
9,RAVCI,< -0.25
10,LVIHMRDMQA,< -0.25
11,RGSYGVSREGVTLN,< -0.25
12,YNLANRYKRSSPPTKHLTLD,< -0.25
13,LGGWGSNS,< -0.25
14,RVGEGLTSARTDSAAQLPSA,< -0.25
15,GVDGLGFLFLCASRP,< -0.25
16,LTHLQLGNSAWIKCRKSEAV,< -0.25
17,GGLACRGVDRG,< -0.25
18,PLRSVNLRPFRLKPTI,< -0.25
19,LCAELPHGSTGDHPRQ,< -0.25
20,QAFGLDCAHGLPGDPGNMHH,< -0.25
21,FLLRFANEP,< -0.25
22,CYLGISSLITCVGSTRVFDK,< -0.25
23,RYGLAFGPVCVSTTPKGLSG,< -0.25

row,Substance,growth estimate
1,LPSLKYASSDHIAWTPRI,< -0.25
2,ARGIAAAHHLGVTRDPTSRP,< -0.25
3,AGFRVLDGKDHPNSSTIPFR,< -0.25
4,LGILKYLARRRQIR,< -0.25
5,PGNIFTKALTNLYRLSSRDA,< -0.25
6,MRVVDANIRDDPRLL,< -0.25
7,GIHKSPLARTLHQPPIMSLS,< -0.25
8,RTIS,< -0.25
9,VEMAKGLHYAVWLPLLALPI,< -0.25
10,ELITSRDTPIS,< -0.25
11,HRVPMRGFASRFENWTGVAW,< -0.25
12,HLISTVGGSGPVMCLPRADN,-0.246
13,LRGEGGHLR,< -0.25
14,SGISSAPRPSRCRNLASIIT,< -0.25
15,VVGDLGLSKRRARHGITITA,< -0.25
16,LSFGVLL,-0.112
17,ALGTRANLRVASSS,< -0.25
18,PLARP,< -0.25
19,ATKPENLEVRREGSGSSSLL,< -0.25
20,DLICYKIDQLVLVARLNTFG,< -0.25
21,KATRRPAYGLRQCWASTRHV,< -0.25
22,PSGTCRIADEVT,-0.224
23,IVLPVGYTDIFEC,5.18

row,Substance,growth estimate
1,KGGYDLPLQRGGNASTKVDS,< -0.25
2,SVVIRTILLASGILVTPVSR,< -0.25
3,IHRVDRMSKNNPLGATV,< -0.25
4,LVPSSARPCAGISSSQ,< -0.25
5,LGLTVNFDPVHEDAGCA,< -0.25
6,VYETIPRPQVAIIVFSGCVE,< -0.25
7,FLT,< -0.25
8,VLVVGENLAIREGTDP,< -0.25
9,DGPLFLFHGNQVVLWCIRAR,< -0.25
10,LTSLSPCPWRLVCLPGWGRQ,< -0.25
11,SSSFDLSNLADQMV,< -0.25
12,FCIATR,< -0.25
13,VLLCTLTCVHALRGPLPHQQ,< -0.25
14,SSQAGSGRGRATRADSLGAS,< -0.25
15,KPCSTAGIIVGNRYPTAGRV,< -0.25
16,PITGRPPRGAVCSMPLPAYA,< -0.25
17,RCVTRLHWRLDTY,< -0.25
18,SQAGSQ,< -0.25
19,FDSRYEAIALTDPIFRCWTQ,-0.203
20,DHLFCEIRS,< -0.25
21,LKTLGERGNRCSNYCTWNSP,< -0.25
22,LRLDQL,< -0.25
23,LSPSRYRKLLHAAKGRSYPE,< -0.25

row,Substance,growth estimate
1,CGL,< -0.25
2,SGSSSVKSSLTSNSITNGPL,< -0.25
3,SGGAKPGPLPE,< -0.25
4,RFTLRDSCRVSISDLPRRSA,< -0.25
5,LRVY,< -0.25
6,GILPCIQLTNTHLGERLEWI,-0.231
7,IVSSLQ,< -0.25
8,LGMSSFDSIVRAEPVKR,< -0.25
9,QDEQWCTNALVSPALWRSTQ,< -0.25
10,WPTRAKIKRLL,< -0.25
11,DRRYFRTGPRFRALRCLY,< -0.25
12,VVLALIARPYVSSVQPVVP,< -0.25
13,DQMGESELRPRRNGGIDAWS,< -0.25
14,INSVLQSDFSRR,< -0.25
15,LSDFNVCQQVT,< -0.25
16,LACDRSSDRLPVEPRSSVRG,< -0.25
17,NRRALAAWEIAYVCNCEKRD,< -0.25
18,FPLVGTSRGRLGSVA,< -0.25
19,TRYNPYQARPPAGLAVASHL,< -0.25
20,ARGSW,< -0.25
21,PWNGAIGCYVPGAVTRGGSA,-0.22
22,KNCLSCCRQNFFVKVMPQSI,< -0.25
23,APVTARLGLAFYSMGPSIAC,< -0.25

row,Substance,growth estimate
1,GGSLGSEPAVSCGAYGARDY,< -0.25
2,RRHPI,< -0.25
3,RATALGTSDPEDDLSLGEGK,< -0.25
4,MDCDQGFSTGRPAHLLHFKA,< -0.25
5,KRFRV,< -0.25
6,QQMGHGF,< -0.25
7,ECSVSTTLSS,< -0.25
8,DKFILFG,< -0.25
9,LLSGYVVASP,< -0.25
10,GDETVCTVDRPRFSMAVRGL,< -0.25
11,SGRWRIGR,< -0.25
12,GQFDELAIHSVT,< -0.25
13,RERELGSPLRESWRWGSF,< -0.25
14,KCKTLHCGSQHRFRHGEAPS,< -0.25
15,GLCTVHAQHHSYIKGG,< -0.25
16,LWCCPTYGWVTMRLKYTVSL,< -0.25
17,ARKP,< -0.25
18,SLPNFSRRGRPRHRRPTPAF,< -0.25
19,VGSHHRFGIIPRRCETYW,< -0.25
20,RKRMFGPSILIPMRY,< -0.25
21,FMVCQRCTIPSRPRIFNVVP,< -0.25
22,WWGISKFFGRESMDGRNRRW,< -0.25
23,NSNTVVR,< -0.25

# Reformatted with tabs: entries from further up.
row	Substance	growth estimate
23	LSPSRYRKLLHAAKGRSYPE	< -0.25
1	CGL	< -0.25
2	SGSSSVKSSLTSNSITNGPL	< -0.25
3	SGGAKPGPLPE	< -0.25
4	RFTLRDSCRVSISDLPRRSA	< -0.25
5	LRVY	< -0.25
6	GILPCIQLTNTHLGERLEWI	-0.231
7	IVSSLQ	< -0.25
8	LGMSSFDSIVRAEPVKR	< -0.25
9	QDEQWCTNALVSPALWRSTQ	< -0.25
10	WPTRAKIKRLL	< -0.25
11	DRRYFRTGPRFRALRCLY	< -0.25
12	VVLALIARPYVSSVQPVVP	< -0.25
13	DQMGESELRPRRNGGIDAWS	< -0.25
14	INSVLQSDFSRR	< -0.25
15	LSDFNVCQQVT	< -0.25
16	LACDRSSDRLPVEPRSSVRG	< -0.25
17	NRRALAAWEIAYVCNCEKRD	< -0.25
18	FPLVGTSRGRLGSVA	< -0.25
19	TRYNPYQARPPAGLAVASHL	< -0.25
20	ARGSW	< -0.25
21	PWNGAIGCYVPGAVTRGGSA	-0.22
22	KNCLSCCRQNFFVKVMPQSI	< -0.25
23	APVTARLGLAFYSMGPSIAC	< -0.25
1	GGSLGSEPAVSCGAYGARDY	< -0.25
2	RRHPI	< -0.25
3	RATALGTSDPEDDLSLGEGK	< -0.25
4	MDCDQGFSTGRPAHLLHFKA	< -0.25
5	KRFRV	< -0.25
6	QQMGHGF	< -0.25
7	ECSVSTTLSS	< -0.25
8	DKFILFG	< -0.25
9	LLSGYVVASP	< -0.25
10	GDETVCTVDRPRFSMAVRGL	< -0.25
11	SGRWRIGR	< -0.25
12	GQFDELAIHSVT	< -0.25
13	RERELGSPLRESWRWGSF	< -0.25
14	KCKTLHCGSQHRFRHGEAPS	< -0.25
15	GLCTVHAQHHSYIKGG	< -0.25
16	LWCCPTYGWVTMRLKYTVSL	< -0.25
17	ARKP	< -0.25
18	SLPNFSRRGRPRHRRPTPAF	< -0.25
19	VGSHHRFGIIPRRCETYW	< -0.25
20	RKRMFGPSILIPMRY	< -0.25
21	FMVCQRCTIPSRPRIFNVVP	< -0.25
22	WWGISKFFGRESMDGRNRRW	< -0.25

# Additional records follow:

row,Substance,growth estimate
1,NSKRQGTGLREIGLNSVIIR,< -0.25
2,RIAT,< -0.25
3,TLTSLNPIFVAHCAPRSPKA,< -0.25
4,LGWVTVQTISSAIGRKQAIP,< -0.25
5,RGSRSY,< -0.25
6,PGSARSEVCRAGN,< -0.25
7,SVIRHRNFRLH,< -0.25
8,PFRFP,< -0.25
9,PGCFSRPHRRLHMFAWQGRH,-0.246
10,VRPSDGSCQCFSRSQGIFPV,< -0.25
11,GANVSGDTFRLVYPRKC,-0.246
12,IYQNEGF,-0.203
13,DTVVCYEVVRTLGRGLSETT,0.899
14,KVQ,< -0.25
15,ALNHWYLWAGGVRAGFQRDR,< -0.25
16,VVTSAYAASASC,< -0.25
17,GPLAVRLKRQPPA,< -0.25
18,FRAMVRALSLMPCRTVTKAN,< -0.25
19,RPMG,< -0.25

# — the supplement of paper PMC5949888
